The list is a part of this screen's results and no random one: its compounds were picked by chemical class. Other doses and runs of a compound may be missing. T/C: endpoint of the treated group in % of that of the vehicle group. Where survival is the endpoint, this PubChem deposit counts one and a half times the control or more as active, and values a quarter to a half above the control carry no call in these data; other NCI protocols may use other cut-offs. Schedule codes are those of the source, read here as Q, the interval in days (D) or hours (H), X, the number of doses.
System: BDF1 mice, C1498 leukemia ip, median survival T/C
Experiment: NCI In Vivo Anticancer Drug Screen. Data for tumor model C1498 Myeloid Leukemia (intraperitoneal) in B6D2F1 (BDF1) mice
Settings: T/C endpoint: median survival time, schedule: Q01DX010 (ip), vehicle: saline, higher T/C = longer survival
Procedure: The antitumor activity of compounds was measured in mice bearing transplantable tumors. Survival or tumor size were measured and the results are expressed as the measurement made in the treated group (T) divided by the measurement made in the vehicle treated control group (C). The tumor model used in this assay is C1498 Myeloid Leukemia (intraperitoneal) in B6D2F1 (BDF1) mice

**Q.** `NC1CCCCC1.O=P(O)(N(CCCl)CCCl)N1CC1` was tested. Which T/C (dose: 2.5 mg/kg/injection) did it give?
**A.** The T/C was 109 % of control.

**Q.** What about the T/C (dose: 5.0 mg/kg/injection) of the same compound?
**A.** The T/C was 109 % of control.

**Q.** What about the T/C (dose: 10.0 mg/kg/injection) of the same compound?
**A.** The T/C was 122 % of control.

**Q.** What about the T/C (dose: 20.0 mg/kg/injection) of the same compound?
**A.** Its T/C is 163 % of control.

**Q.** Which results are given for `Cc1[nH]c(=O)[nH]c(=O)c1N(CCCl)CCCl`?
**A.** T/C (dose: 0.25 mg/kg/injection): 109 % of control; T/C (dose: 0.5 mg/kg/injection): 113 % of control; T/C (dose: 1.0 mg/kg/injection): 131 % of control; T/C (dose: 2.0 mg/kg/injection): 127 % of control

**Q.** `CC[C@@H](C)[C@@H]1NC(=O)/C(=C(\C)O)C1=O.c1ccc(CNCCNCc2ccccc2)cc1` was tested. Which T/C (dose: 10.0 mg/kg/injection) did it give?
**A.** The T/C was 109 % of control.

**Q.** And the T/C (dose: 14.0 mg/kg/injection)?
**A.** Its T/C is 104 % of control.

**Q.** What about the T/C (dose: 20.0 mg/kg/injection) of the same compound?
**A.** Its T/C is 100 % of control.

**Q.** And the T/C (dose: 30.0 mg/kg/injection)?
**A.** The T/C was 100 % of control.

— PubChem BioAssay AID312 (DTP/NCI, 2004)
